{"source": "PubChem BioAssay AID1224830 (NIAID, 2016)", "test": "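Genes whose knock-down alters the TNF-alpha reporter response to LPS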 (primary screen)", "system": "human THP-1 monocytic leukaemia cells, TNF dual-luciferase reporter clone, PMA-differentiated to macrophage-like cells", "reagents": "siRNA pool against human genes, 50 nM", "timing": "LPS for 4 h, given about 3 days after siRNA transfection", "challenge": "bacterial LPS (TLR4 ligand), 10 ng/ml", "measurement": "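Ratio of firefly to renilla light, scaled to the plate median and expressed as a robust z-score per replicate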", "scale": "TNF reporter robust z-score: higher = stronger TNF reporter response to LPS", "hit rule": "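a well is active when its z-score exceeds 2.8 or falls below -1.5; control wells carry no call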", "note": "This is a random part of about 18,000 reagents tested. In the full data, about 2,900 (16%) are marked active. 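Calls are made per well; low scores hint the gene aids the LPS response, high scores that it dampens it.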 Entries without a mark were called inactive. Repeated entries: four replicate wells of each siRNA pool."}
{"gene":"USP32","TNF reporter robust z-score":-0.76}
{"gene":"USP32","TNF reporter robust z-score":-0.84}
{"gene":"USP32","TNF reporter robust z-score":-0.57}
{"gene":"PREPL","TNF reporter robust z-score":-0.15}
{"gene":"PREPL","TNF reporter robust z-score":-0.11}
{"gene":"PREPL","TNF reporter robust z-score":-0.22}
{"gene":"PREPL","TNF reporter robust z-score":1.09}
{"gene":"RPL17","TNF reporter robust z-score":0.91}
{"gene":"RPL17","TNF reporter robust z-score":0.48}
{"gene":"RPL17","TNF reporter robust z-score":-0.3}
{"gene":"RPL17","TNF reporter robust z-score":1.49}
{"gene":"SLC43A1","TNF reporter robust z-score":-1.33}
{"gene":"SLC43A1","TNF reporter robust z-score":-1.31}
{"gene":"SLC43A1","TNF reporter robust z-score":-1.06}
{"gene":"TBATA","TNF reporter robust z-score":-0.79}
{"gene":"TBATA","TNF reporter robust z-score":-1.05}
{"gene":"TBATA","TNF reporter robust z-score":0.11}
{"gene":"TBATA","TNF reporter robust z-score":0.23}
{"gene":"VPS8","TNF reporter robust z-score":-1.05}
{"gene":"VPS8","TNF reporter robust z-score":0.53}
{"gene":"VPS8","TNF reporter robust z-score":0.8}
{"gene":"VPS8","TNF reporter robust z-score":-0.96}
{"gene":"CELF1","TNF reporter robust z-score":0.68}
{"gene":"CELF1","TNF reporter robust z-score":2.06}
{"gene":"CELF1","TNF reporter robust z-score":0.52}
{"gene":"CELF1","TNF reporter robust z-score":1.22}
{"gene":"CD163L1","TNF reporter robust z-score":2.58}
{"gene":"CD163L1","TNF reporter robust z-score":2.41}
{"gene":"CD163L1","TNF reporter robust z-score":2.14}
{"gene":"CD163L1","TNF reporter robust z-score":1.98}
{"gene":"RCN3","TNF reporter robust z-score":"-1.92 (active)"}
{"gene":"RCN3","TNF reporter robust z-score":-1.28}
{"gene":"RCN3","TNF reporter robust z-score":"-1.91 (active)"}
{"gene":"RCN3","TNF reporter robust z-score":-1.41}
{"gene":"CREBRF","TNF reporter robust z-score":0.32}
{"gene":"CREBRF","TNF reporter robust z-score":0.79}
{"gene":"CREBRF","TNF reporter robust z-score":-0.16}
{"gene":"CREBRF","TNF reporter robust z-score":1.1}
{"gene":"APLP2","TNF reporter robust z-score":-1.43}
{"gene":"APLP2","TNF reporter robust z-score":-0.67}
{"gene":"APLP2","TNF reporter robust z-score":-0.84}
{"gene":"APLP2","TNF reporter robust z-score":-1.45}
{"gene":"ITLN2","TNF reporter robust z-score":0.3}
{"gene":"ITLN2","TNF reporter robust z-score":1.06}
{"gene":"ITLN2","TNF reporter robust z-score":-0.63}
{"gene":"ITLN2","TNF reporter robust z-score":"-1.57 (active)"}
{"gene":"DENND6A","TNF reporter robust z-score":-1.45}
{"gene":"DENND6A","TNF reporter robust z-score":-0.86}
{"gene":"DENND6A","TNF reporter robust z-score":-0.06}
{"gene":"DENND6A","TNF reporter robust z-score":-0.26}
{"gene":"SLFN13","TNF reporter robust z-score":0.96}
{"gene":"SLFN13","TNF reporter robust z-score":0.33}
{"gene":"SLFN13","TNF reporter robust z-score":0.85}
{"gene":"GANAB","TNF reporter robust z-score":1.83}
{"gene":"GANAB","TNF reporter robust z-score":1.49}
{"gene":"GANAB","TNF reporter robust z-score":-0.01}
{"gene":"GANAB","TNF reporter robust z-score":1.47}
{"gene":"OSBP","TNF reporter robust z-score":0.03}
{"gene":"OSBP","TNF reporter robust z-score":0.07}
{"gene":"OSBP","TNF reporter robust z-score":1.16}

A portion from the list above, as a working copy:
{"gene":"RCN3","TNF reporter robust z-score":-1.41}
{"gene":"CREBRF","TNF reporter robust z-score":0.32}
{"gene":"CREBRF","TNF reporter robust z-score":0.79}
{"gene":"CREBRF","TNF reporter robust z-score":-0.16}
{"gene":"CREBRF","TNF reporter robust z-score":1.1}
